Reference: patent US20210340217A1, “NOVEL PEPTIDES AND COMBINATION OF PEPTIDES FOR USE IN IMMUNOTHERAPY AGAINST OVARIAN CANCER AND OTHER CANCERS” (Immatics Biotechnologies GmbH, priority 2017, published 2021)

Test system: ovarian cancer tissue samples
Experiment: Identification of tumor associated peptides presented on the cell surface (HLA immunoprecipitation, LC-MS); presentation across tumor types
Parameters: species or system human
Conditions: tumor types on which the peptide was found presented (HLA immunoprecipitation, LC-MS); abbreviations in table footnote

| Substance | Peptide Presentation on tumor types |
| --- | --- |
| 211 (EEKVFPSPLW; listed as Homo sapiens) [compound 211] | NHL |
| 283 (IVQEPTEEK; listed as Homo sapiens) [compound 283] | HCC, NHL, NSCLC |
| 72 (YLTDLQVSL; listed as Homo sapiens) [compound 72] | AML, BRCA, CCC, CLL, CRC, GBC, GBM, GC, GEJC, HCC, HNSCC, MEL, NHL, NSCLC, OSCAR, PACA, PRCA, RCC, SCLC, UBC, UEC |
| 386 (FPFNPLDF; listed as Homo sapiens) [compound 386] | GC, NHL |
| 661 (LRGLLPVLGQPIIRSIPQG; listed as Homo sapiens) [compound 661] | NSCLC |
| 479 (TEGSHFVEA; listed as Homo sapiens) [compound 479] | BRCA, SCLC, UEC |
| 147 (APRWFPQPTVV; listed as Homo sapiens) [compound 147] | BRCA |
| 614 (TVAEVQKLLGPHVEGL; listed as Homo sapiens) [compound 614] | NSCLC |
| 461 (AQRMTTQLL; listed as Homo sapiens) [compound 461] | CRC, MEL, NSCLC, RCC |
| 485 (VRFPVHAAL; listed as Homo sapiens) [compound 485] | MEL, NSCLC, OSCAR |
| 235 (SAIETSAVL; listed as Homo sapiens) [compound 235] | NSCLC, UEC |
| 133 (MPNLPSTTSL; listed as Homo sapiens) [compound 133] | UEC |
| 318 (FPNRLNLEA; listed as Homo sapiens) [compound 318] | CCC, CLL, GC, HNSCC, MEL, NSCLC, PRCA, RCC, SCLC, UBC |
| 178 (NELFRDGVNW; listed as Homo sapiens) [compound 178] | AML, BRCA, CCC, CLL, CRC, HCC, HNSCC, MEL, NHL, NSCLC, OSCAR, PACA, PRCA, SCLC, UBC, UEC |
| 607 (LTVAEVQKLLGPHVEGLKAEE; listed as Homo sapiens) [compound 607] | NSCLC |
| 613 (LTVAEVQKLLGPHVEG; listed as Homo sapiens) [compound 613] | NSCLC |
| 403 (EEAQWVRKY; listed as Homo sapiens) [compound 403] | BRCA, CLL, NHL |
| 694 (GSLLSEADVRALGG; listed as Homo sapiens) [compound 694] | NSCLC |
| 124 (LPSDSHFKITF; listed as Homo sapiens) [compound 124] | CRC, HNSCC, NHL, OSCAR, SCLC |
| 245 (LAVEGGQSL; listed as Homo sapiens) [compound 245] | AML, BRCA, CCC, CRC, GBC, GBM, GC, GEJC, HCC, HNSCC, MEL, NHL, NSCLC, OSCAR, PACA, PRCA, RCC, SCLC, UBC, UEC |
| 48 (DVKKKIKEV; listed as Homo sapiens) [compound 48] | NSCLC, RCC, SCLC |
| 192 (YEFKFPNRL; listed as Homo sapiens) [compound 192] | BRCA, HCC, NSCLC, OSCAR, UEC |
| 425 (SEVPLPMAI; listed as Homo sapiens) [compound 425] | NSCLC, UEC |
| 480 (GRADIMIDF; listed as Homo sapiens) [compound 480] | BRCA, CRC, HNSCC, MEL, NSCLC, OSCAR, SCLC, UEC |
| 487 (GMADILVVF; listed as Homo sapiens) [compound 487] | NSCLC |
| 471 (AQRLDPVYF; listed as Homo sapiens) [compound 471] | CCC, CRC, GBC, GEJC, NSCLC, OSCAR, PACA, SCLC, UBC |

| Substance | Peptide Presentation on tumor types |
| --- | --- |
| 404 (NEAIMHQY; listed as Homo sapiens) [compound 404] | BRCA, CCC, CLL, CRC, GBC, GC, HCC, MEL, NHL, NSCLC, OSCAR, SCLC, UBC, UEC |
| 451 (DYLNEWGSRF; listed as Homo sapiens) [compound 451] | NSCLC, OSCAR, UEC |
| 224 (SLPRFQVTL; listed as Homo sapiens) [compound 224] | BRCA, HCC, NHL, NSCLC, OSCAR, UBC, UEC |
| 256 (RTEEVLLTFK; listed as Homo sapiens) [compound 256] | RCC, SCLC, UEC |
| 598 (AESLFREALSNKVDEL; listed as Homo sapiens) [compound 598] | NSCLC |
| 637 (ALRGLLPVLGQPIIR; listed as Homo sapiens) [compound 637] | NSCLC |
| 43 (ALKARTVTF; listed as Homo sapiens) [compound 43] | BRCA, CCC, GBM, HCC, HNSCC, MEL, NHL, NSCLC, OSCAR, PRCA, SCLC, UBC, UEC |
| 355 (SPLVTSHIM; listed as Homo sapiens) [compound 355] | UEC |
| 537 (IRRLKELKDQ; listed as Homo sapiens) [compound 537] | NSCLC |
| 414 (EDAALFKAW; listed as Homo sapiens) [compound 414] | CLL, CRC, MEL, NHL |
| 251 (KQRQVLIFF; listed as Homo sapiens) [compound 251] | GBM, NSCLC, OSCAR, PACA, RCC |
| 549 (ARSKLQQGL; listed as Homo sapiens) [compound 549] | MEL |
| 528 (TRTGLFLRF; listed as Homo sapiens) [compound 528] | HNSCC, NSCLC, UEC |
| 19 (KYVKVFHQF; listed as Homo sapiens) [compound 19] | AML, BRCA, CLL, CRC, GBC, GBM, GC, HCC, MEL, NHL, NSCLC, OSCAR, PACA, PRCA, RCC, SCLC, UBC, UEC |
| 409 (REFVLSKGDAGL; listed as Homo sapiens) [compound 409] | GBC, GC, GEJC, HNSCC, NSCLC |
| 53 (MEHPGKLLF; listed as Homo sapiens) [compound 53] | UEC |
| 635 (ALRGLLPVLGQPIIRS; listed as Homo sapiens) [compound 635] | NSCLC |
| 444 (KLSQKGYSW; listed as Homo sapiens) [compound 444] | BRCA, CCC, CRC, GBM, HCC, HNSCC, MEL, NHL, NSCLC, OSCAR, PACA, PRCA, SCLC, UBC |
| 610 (LTVAEVQKLLGPHVEGLK; listed as Homo sapiens) [compound 610] | NSCLC |
| 498 (EVYPELGTQGR; listed as Homo sapiens) [compound 498] | UEC |
| 417 (AEHFSMIRA; listed as Homo sapiens) [compound 417] | AML, BRCA, CRC, GBM, GC, HNSCC, NHL, NSCLC, OSCAR, PACA, PRCA, RCC, UEC |
| 520 (THSAMTHGF; listed as Homo sapiens) [compound 520] | NHL |
| 15 (VYHDDKQPTF; listed as Homo sapiens) [compound 15] | GBM, GC, NSCLC, OSCAR, UEC |
| 545 (RVGPPLLI; listed as Homo sapiens) [compound 545] | BRCA, CRC, NSCLC, OSCAR, UEC |
| 337 (HPVETSSAL; listed as Homo sapiens) [compound 337] | UEC |
| 314 (VPDQPHPEI; listed as Homo sapiens) [compound 314] | PACA |
